In the supplement of paper PMC12823440, “Inhibitors supercharge kinase turnover through native proteolytic circuits” (Nature, 2025):
Where a name gives a salt, the structure may show the parent alone. The list shows a part of the results. Hit calls seldom repeat between salt and free forms of one compound.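 Kinases, fused to nanoluciferase, were expressed in K562 cells; luminescence was measured every 4 h from 2 to 18 h as percent of control (DMSO = 100%, positive control = 0%). A time point is decreased if signal falls significantly (2 sigma). Hits were called by the authors by a rule that is not shown; the count of time points alone does not decide it.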

Protein sequences, listed by entry. Tags and fused reporters are not part of them. Lines headed by an entry give the natural chain unless they say otherwise; changes in a name come on top.
UniProt Q15208: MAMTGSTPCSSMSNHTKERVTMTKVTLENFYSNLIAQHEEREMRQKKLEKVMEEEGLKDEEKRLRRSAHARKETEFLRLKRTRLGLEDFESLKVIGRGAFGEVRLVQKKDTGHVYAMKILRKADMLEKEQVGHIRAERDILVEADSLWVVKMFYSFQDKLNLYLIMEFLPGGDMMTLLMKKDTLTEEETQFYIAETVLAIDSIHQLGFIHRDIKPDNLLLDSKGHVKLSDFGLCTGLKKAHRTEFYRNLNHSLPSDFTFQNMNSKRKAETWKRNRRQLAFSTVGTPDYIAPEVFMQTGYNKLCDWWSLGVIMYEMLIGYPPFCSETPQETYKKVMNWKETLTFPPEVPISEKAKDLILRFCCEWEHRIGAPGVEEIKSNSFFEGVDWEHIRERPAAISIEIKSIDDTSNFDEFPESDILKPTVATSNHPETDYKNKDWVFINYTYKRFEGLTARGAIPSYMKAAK

Target: STK38 (UniProt Q15208)
Experiment: kinase-Nluc reporter destabilization hit call (1 = scored as downregulated) (binary); higher = compound decreases kinase abundance
Conditions: 2.5 µM; K562; 2-18 h

kinase-Nluc reporter destabilization hit call, inactive:
C=CC(=O)Nc1cc(Nc2nccc(-c3cn(C)c4ccccc34)n2)c(OC)cc1N(C)CCN(C)C [Osimertinib mesylate] 0
Cc1cccc(-c2[nH]c(CNc3ccccc3F)nc2-c2ccc3ncnn3c2)n1 [Vactosertib (Hydrochloride)] 0
CC(C)Oc1ccc(-c2nn([C@@H](C)c3oc4ccc(F)cc4c(=O)c3-c3cccc(F)c3)c3ncnc(N)c23)cc1F [Umbralisib (hydrochloride)] 0
COc1ccc(S(=O)(=O)Nc2ccccc2CN(C)C/C=C/c2ccc(Cl)cc2)cc1 [KN-92 (phosphate)] 0
CN(C)C(=O)c1cc2cnc(Nc3ccc(N4CCNCC4)cn3)nc2n1C1CCCC1 [Ribociclib succinate hydrate] 0
C=CC(=O)Nc1cc2c(Nc3ccc(F)c(Cl)c3)ncnc2cc1C#CC(C)(C)N1CCN(C)CC1 0
Cc1cccc(/C=N/Nc2cc(N3CCOCC3)nc(OCCc3ccccn3)n2)c1 [Apilimod] 0
COc1cc2c(Oc3ccc4[nH]c(C)cc4c3F)ncnc2cc1OCCCN1CCCC1 [Cediranib] 0
Cc1cc(Nc2ncc(Cl)c(Nc3ccccc3S(=O)(=O)C(C)C)n2)c(OC(C)C)cc1C1CCNCC1 [Ceritinib dihydrochloride] 0
Nc1ncnc2c1c(-c1ccc(Oc3ccccc3)cc1)nn2[C@@H]1CCCNC1 0
CNC(=O)c1cc(Oc2ccc(NC(=O)Nc3ccc(Cl)c(C(F)(F)F)c3)c(F)c2)ccn1 [Regorafenib] 0

As a short view, part of the list above:
kinase-Nluc reporter destabilization hit call, inactive:
CC(C)Oc1ccc(-c2nn([C@@H](C)c3oc4ccc(F)cc4c(=O)c3-c3cccc(F)c3)c3ncnc(N)c23)cc1F [Umbralisib (hydrochloride)] 0
COc1ccc(S(=O)(=O)Nc2ccccc2CN(C)C/C=C/c2ccc(Cl)cc2)cc1 [KN-92 (phosphate)] 0
